Data reported in patent publication US11352391B2 (Dignify Therapeutics, LLC, priority 2017, dated 2022).
Where no end group is shown, it is not given here. [ ]: non-standard residue; d: D form. NMeL = CN[C@@H](CC(C)C)C(=O)O; Nle = CCCC[C@H](N)C(=O)O; βAla = NCCC(=O)O

Test: general procedure: Fmoc solid-phase peptide synthesis
Conditions: whole synthesis

Compared with Asp-Lys-Phe-Val-Gly-(NMe-Leu)-Met-NH2, DRFV[βAla]L[Nle]-NH2 is lower in “final HPLC purity” value: 98% for the first, 97% for the second.

Compared with DKFV[βAla]L[Nle]-NH2, DKFV[βAla]LM-NH2 is lower in “final HPLC purity” value: 99% for the first, 96% for the second.

Going from Asp-Lys-Phe-Val-Gly-Leu-Nle-NH2 to DRFVG[NMeL][Nle]-NH2, the “final HPLC purity” value rises from 95% to 99%.

First: DRFV[βAla]LM-NH2
Second: DRFVGLM-NH2
The “final HPLC purity” value of the first is higher: 99% for the first, 96% for the second.

Compared with Asp-Lys-Phe-Val-Gly-Leu-Met-NH2, DRFVGL[Nle]-NH2 is higher in “final HPLC purity” value: 95% for the first, 99% for the second.

For DRFVG[NMeL]M-NH2, the “final HPLC purity” value was 98%.
